According to the supplement of paper PMC3334620:
In all, about 33,000 sequences were measured (“E-score (-0.5 to 0.5)”: median about -0.0034, highest 2% from about 0.25 on). The list shows a part of the results.

Target: T1, Yap3 (UniProt P38749)
T1 sequence: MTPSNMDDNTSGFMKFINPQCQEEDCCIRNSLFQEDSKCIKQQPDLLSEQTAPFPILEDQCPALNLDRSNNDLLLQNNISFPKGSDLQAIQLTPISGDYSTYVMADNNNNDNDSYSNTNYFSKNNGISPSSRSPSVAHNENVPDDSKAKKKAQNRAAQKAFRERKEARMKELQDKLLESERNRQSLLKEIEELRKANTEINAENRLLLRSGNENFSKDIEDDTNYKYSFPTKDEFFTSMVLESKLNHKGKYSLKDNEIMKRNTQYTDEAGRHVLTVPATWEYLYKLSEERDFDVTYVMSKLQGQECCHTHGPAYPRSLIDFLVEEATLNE
Assay: PBM E-score (8-mer binding enrichment) (E-score (-0.5 to 0.5)); higher = stronger / more preferred TF binding
Settings: protein concentration: 100 nM; construct: GST-full length
Procedure, shortened: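 Yeast transcription factors, full-length or as DNA-binding domains, were expressed with a GST tag using PURExpress in vitro transcription/translation. At about 100-200 nM they were applied to universal all-10-mer Agilent arrays, double-stranded by primer extension on fresh or once-stripped slides. Fluorescent anti-GST detected bound protein, and masliner normalised the scans. E-scores for ungapped eight-base words, pooled with reverse complements, came from the Universal PBM Analysis Suite.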

Row | Sequence | PBM E-score
1 | AGCGGATA | -0.069
2 | CGGCGCCC | -0.11
3 | GGAATACA | 0.0216
4 | ACCAAGAG | -0.0958
5 | CTAACAAG | 0.0409
6 | ACGTTCCT | -0.0243
7 | GAAATCCC | -0.0899
8 | ACGAGCTA | -0.253
9 | GGTCTGGA | -0.137
10 | ATGTTAAG | 0.105
11 | TACTCATA | 0.0212
12 | AGGATTAC | 0.125
13 | ATCGCCAC | 0.207
14 | CTTCCACA | 0.00996
15 | CCTAAAAC | -0.00129
16 | AAGCGCAC | -0.00615
17 | GCCATAAC | -0.0573
18 | CAGGCGCC | -0.0752
19 | GAGCACTC | -0.16
20 | GGACACCA | -0.0775
21 | CTTGATAC | -0.0529
22 | GCTCCAAC | -0.0214

Row | Sequence | PBM E-score
23 | GTAACCTA | 0.133
24 | AACATCTC | 0.08
25 | CTGAGCCA | -0.112
26 | TGAAAGCA | 0.254
27 | ACGATCAG | 0.00831
28 | GGCGTCAC | -0.00084
29 | GGGCCCTA | -0.276
30 | AACGAAAC | 0.159
31 | AAACTTTG | 0.0821
32 | GCCATCAC | -0.0186
33 | CCCATTGA | -0.0177
34 | GCACTCTA | 0.0293
35 | ATGTATGA | 0.105
36 | CAACTAAA | 0.0999
37 | AACGAGTT | -0.0775
38 | CAAGTAAC | 0.043
39 | CGAGGCTA | -0.0739
40 | AGCCTTGG | -0.104
41 | CAACCAGA | 0.0129
42 | CCCAGAAG | -0.217
43 | AAGTGTCC | -0.0723
44 | AGAATACT | 0.164

Shown as a markdown table: entries from further up

| Row | Sequence | PBM E-score |
| --- | --- | --- |
| 4 | ACCAAGAG | -0.0958 |
| 5 | CTAACAAG | 0.0409 |
| 6 | ACGTTCCT | -0.0243 |
| 7 | GAAATCCC | -0.0899 |
| 8 | ACGAGCTA | -0.253 |
| 9 | GGTCTGGA | -0.137 |
| 10 | ATGTTAAG | 0.105 |
| 11 | TACTCATA | 0.0212 |
| 12 | AGGATTAC | 0.125 |
| 13 | ATCGCCAC | 0.207 |
| 14 | CTTCCACA | 0.00996 |
| 15 | CCTAAAAC | -0.00129 |
| 16 | AAGCGCAC | -0.00615 |
| 17 | GCCATAAC | -0.0573 |
| 18 | CAGGCGCC | -0.0752 |
| 19 | GAGCACTC | -0.16 |
| 20 | GGACACCA | -0.0775 |
| 21 | CTTGATAC | -0.0529 |
| 22 | GCTCCAAC | -0.0214 |
| 23 | GTAACCTA | 0.133 |
| 24 | AACATCTC | 0.08 |
| 25 | CTGAGCCA | -0.112 |
| 26 | TGAAAGCA | 0.254 |
| 27 | ACGATCAG | 0.00831 |
| 28 | GGCGTCAC | -0.00084 |
| 29 | GGGCCCTA | -0.276 |
| 30 | AACGAAAC | 0.159 |
| 31 | AAACTTTG | 0.0821 |
| 32 | GCCATCAC | -0.0186 |
| 33 | CCCATTGA | -0.0177 |
| 34 | GCACTCTA | 0.0293 |

The listing continues:

Row | Sequence | PBM E-score
45 | AACTAGTA | 0.109
46 | CGGATCAG | -0.0755
47 | GATAAACA | 0.0819
48 | GCTTTACA | 0.0571
49 | ACATAGGG | -0.0844
50 | GGCAACTA | 0.0389
51 | ACGGGTAT | 0.0167
52 | CAACATCG | 0.177
53 | AGTCAAAC | -0.0978
54 | GCAAACAA | 0.272
55 | ATCTTTGC | 0.161
56 | ACGTTTAA | 0.137
57 | CTCGTTAA | 0.0917
58 | AATTCGGA | 0.0803
59 | CAACGTTG | 0.239
60 | GGCGTCCA | -0.00825
61 | ACCACTAC | -0.0507
62 | GTGCTAAA | 0.0452
63 | CATAGCCG | -0.0425
64 | CCCTCGAA | -0.166
65 | GCAACTTA | 0.1
66 | GCTCCGCA | -0.131

Row | Sequence | PBM E-score
67 | ATGCATTC | 0.0938
68 | AGTTCGAC | -0.0163
69 | CGTGCACA | -0.0397
70 | AATGACCA | 0.175
71 | TCGGAAAA | 0.275
72 | GACATATC | 0.121
73 | AGCGAACT | -0.0138
74 | CCTCGAGC | -0.0293
75 | CAGAACAA | 0.248
76 | AGCCAACG | 0.0109
77 | ACGGGATA | 0.11
78 | AGTACTTA | -0.0181
79 | ATAAGGTC | 0.105
80 | CCCAGGAG | -0.288
81 | CCAGGGCA | -0.189
82 | GCATGACC | -0.158
83 | GACCGTCA | -0.106
84 | CACTTTCA | -0.05
85 | AGTTAACA | 0.158
86 | GTAAACAC | -0.0139
87 | TATGAATA | 0.266
88 | AGTACCTA | 0.0179

Row | Sequence | PBM E-score
89 | CCATACCG | 0.0615
90 | ATAGGGCA | -0.111
91 | AACAGCAT | 0.106
92 | ATGCCACA | -0.00698
93 | GGAGGTAC | -0.148
94 | GAAACTGC | -0.152
95 | TAATCATA | 0.244
96 | CGAGTTCC | 0.136
97 | CCCCATTC | -0.0929
98 | CCACCAGC | -0.0909
99 | GCCGGGAC | -0.242
100 | GACGCCGA | 0.165
101 | AAGGCCAC | -0.143
102 | AGGAGCGG | -0.277
103 | CACAAATA | 0.152
104 | GCGTCGCA | -0.163
105 | TTAACAAA | 0.129
106 | ACCAATAC | 0.0412
107 | AGAGAGCA | -0.149
108 | CGATACAA | 0.112
109 | ACAATACA | 0.0763
110 | AGGGTGCG | -0.104
